Results reported in PMC9600955.
These are yes or no findings as the source states them, for the method shown. In cells and extracts the contact can be indirect. These calls come from enrichment with a bait or labelling near it, and not all partners need be listed. No binding means not detected with the bait.

Experiments:
[1] = biological target: VSV-G epitope tagged TelC (Streptococcus intermedius B196); test: affinity purification with mass spectrometry
[2] = biological target: VSV-G-tagged LapC1 (Streptococcus intermedius B196); test: affinity purification with mass spectrometry

B1: PepC (enzyme, UniProt T1ZEN3 1-445)
chain: MNSLDQQFTDKLYANYEANMKYAAIENAVSHNGLLTSLEKRNSAAENNPVFSIDLTKDKVSNQKASGRCWMFAALNTFRHKMIAGFQLEEFELSQAHTFFWDKYEKSNWFLEQVLATADQELTSRKVKFLLDTPQQDGGQWDMVVALFEKYGVVPKSVYPESISSSNSRELNQYLNKLLRQDAQILRDLVTSGADAAAAQEKKEELLQEIFNFLAMTLGLPPRTFDFAYRDKDNNFHGESGLTPQAFYKKYVDIKLDDYVSIINAPTADKPYGKSYTVEMLGNVVGARDVRYLNVDMNRLKELAIAQMQAGETVWFGSDVGQSSNRKAGVMVNNMYDFTSSMDIELTQDKAGRLDYSESLMTHAMVLTGVDLDENGKSTKWKVENSWGDKVGDKGYFVASDDWMDEYTYQIVIRKEFLTAEELAAYEAEPKVLAPWDPMGALASK
[1]
  binding: no binding
[2]
  binding: no binding
